In patent publication US20110217237A1 one finds binding data, which are given here for twelve molecules.

These are yes or no findings as the source states them, for the method shown. Binding can be weak; no strength is given.

First the molecules themselves.
B1: h1A11.5 (antibody, V domains shown)
VH: EVQLVESGGGLVQPGGSLRLSCAASGFTFSNFPMAWVRQAPGKGLEWVATISSSDGTTYYRDSVKGRFTISRDNAKSSLYLQMNSLRAEDTAVYYCSRGYYNSPFAYWGQGTLVTVSS
VL: DIQMTQSPSSLSASVGDRVTITCRASEDIYSNLAWYQQKPGKAPKLLIYDTNNLADGVPSRFSGSGSGTDFTLTISSLQPEDFATYYCQQYNNYPPTFGQGTKLEIKR
B2: h1A11.13 (antibody, V domains shown)
VH: EVQLVESGGGLVQPGGSLRLSCAASGFTFSNFPMAWVRQAPGKGLEWVATISSSDGTTYYRDSVKGRFTISRDNSKSTLYLQMNSLRAEDTAVYYCSRGYYNSPFAYWGQGTLVTVSS
VL: DIQMTQSPSSLSASVGDRVTITCRASEDIYSNLAWYQQKPGKAPKLLIYDTNNLADGVPSRFSGSGSGTDFTLTISSLQPEDFATYYCQQYNNYPPTFGQGTKLEIKR
B3: h1A11.11 (antibody, V domains shown)
VH: EVQLVESGGGLVQPGGSLRLSCAASGFTFSNFPMAWVRQAPGKGLEWVATISSSDGTTYYRDSVKGRFTISRDNAKNSLYLQMNSLRAEDTAVYYCSRGYYNSPFAYWGQGTLVTVSS
VL: DIQMTQSPSSLSASVGDRVTITCRASEDIYSNLAWYQQKPGKAPKLLIFDTNNLADGVPSRFSGSGSGTDFTLTISSLQPEDFATYYCQQYNNYPPTFGQGTKLEIKR
B4: h1A11.6 (antibody, V domains shown)
VH: EVQLVESGGGLVQPGGSLRLSCAASGFTFSNFPMAWVRQAPGKGLEWVATISSSDGTTYYRDSVKGRFTISRDNAKSSLYLQMNSLRAEDTAVYYCSRGYYNSPFAYWGQGTLVTVSS
VL: DIQMTQSPSSLSASVGDRVTITCRASEDIYSNLAWYQQKPGKSPKLLIFDTNNLADGVPSRFSGSGSGTDSTLTISSLQPEDFATYFCQQYNNYPPTFGQGTKLEIKR
B5: h1A11.15 (antibody, V domains shown)
VH: EVQLVESGGGLVQPGGSLRLSCAASGFTFSNFPMAWVRQAPGKGLEWVATISSSDGTTYYRDSVKGRFTISRDNSKSTLYLQMNSLRAEDTAVYYCSRGYYNSPFAYWGQGTLVTVSS
VL: DIQMTQSPSSLSASVGDRVTITCRASEDIYSNLAWYQQKPGKAPKLLIFDTNNLADGVPSRFSGSGSGTDFTLTISSLQPEDFATYYCQQYNNYPPTFGQGTKLEIKR
B6: h1A11.10 (antibody, V domains shown)
VH: EVQLVESGGGLVQPGGSLRLSCAASGFTFSNFPMAWVRQAPGKGLEWVATISSSDGTTYYRDSVKGRFTISRDNAKNSLYLQMNSLRAEDTAVYYCSRGYYNSPFAYWGQGTLVTVSS
VL: DIQMTQSPSSLSASVGDRVTITCRASEDIYSNLAWYQQKPGKSPKLLIFDTNNLADGVPSRFSGSGSGTDSTLTISSLQPEDFATYFCQQYNNYPPTFGQGTKLEIKR
B7: h1A11.12 (antibody, V domains shown)
VH: EVQLVESGGGLVQPGGSLRLSCAASGFTFSNFPMAWVRQAPGKGLEWVATISSSDGTTYYRDSVKGRFTISRDNAKNSLYLQMNSLRAEDTAVYYCSRGYYNSPFAYWGQGTLVTVSS
VL: EIVMTQSPATLSVSPGERATLSCRASEDIYSNLAWYQQKPGQSPRLLIFDTNNLADGVPARFSGSGSGTESTLTISSLQSEDFAVYFCQQYNNYPPTFGQGTKLEIKR
B8: h1A11.8 (antibody, V domains shown)
VH: EVQLVESGGGLVQPGGSLRLSCAASGFTFSNFPMAWVRQAPGKGLEWVATISSSDGTTYYRDSVKGRFTISRDNAKSSLYLQMNSLRAEDTAVYYCSRGYYNSPFAYWGQGTLVTVSS
VL: EIVMTQSPATLSVSPGERATLSCRASEDIYSNLAWYQQKPGQSPRLLIFDTNNLADGVPARFSGSGSGTESTLTISSLQSEDFAVYFCQQYNNYPPTFGQGTKLEIKR
B9: h1A11.14 (antibody, V domains shown)
VH: EVQLVESGGGLVQPGGSLRLSCAASGFTFSNFPMAWVRQAPGKGLEWVATISSSDGTTYYRDSVKGRFTISRDNSKSTLYLQMNSLRAEDTAVYYCSRGYYNSPFAYWGQGTLVTVSS
VL: DIQMTQSPSSLSASVGDRVTITCRASEDIYSNLAWYQQKPGKSPKLLIFDTNNLADGVPSRFSGSGSGTDSTLTISSLQPEDFATYFCQQYNNYPPTFGQGTKLEIKR
B10: h1A11.16 (antibody, V domains shown)
VH: EVQLVESGGGLVQPGGSLRLSCAASGFTFSNFPMAWVRQAPGKGLEWVATISSSDGTTYYRDSVKGRFTISRDNSKSTLYLQMNSLRAEDTAVYYCSRGYYNSPFAYWGQGTLVTVSS
VL: EIVMTQSPATLSVSPGERATLSCRASEDIYSNLAWYQQKPGQSPRLLIFDTNNLADGVPARFSGSGSGTESTLTISSLQSEDFAVYFCQQYNNYPPTFGQGTKLEIKR
B11: h1A11.9 (antibody, V domains shown)
VH: EVQLVESGGGLVQPGGSLRLSCAASGFTFSNFPMAWVRQAPGKGLEWVATISSSDGTTYYRDSVKGRFTISRDNAKNSLYLQMNSLRAEDTAVYYCSRGYYNSPFAYWGQGTLVTVSS
VL: DIQMTQSPSSLSASVGDRVTITCRASEDIYSNLAWYQQKPGKAPKLLIYDTNNLADGVPSRFSGSGSGTDFTLTISSLQPEDFATYYCQQYNNYPPTFGQGTKLEIKR
B12: h1A11.7 (antibody, V domains shown)
VH: EVQLVESGGGLVQPGGSLRLSCAASGFTFSNFPMAWVRQAPGKGLEWVATISSSDGTTYYRDSVKGRFTISRDNAKSSLYLQMNSLRAEDTAVYYCSRGYYNSPFAYWGQGTLVTVSS
VL: DIQMTQSPSSLSASVGDRVTITCRASEDIYSNLAWYQQKPGKAPKLLIFDTNNLADGVPSRFSGSGSGTDFTLTISSLQPEDFATYYCQQYNNYPPTFGQGTKLEIKR

This test has as its target cynomolgus monkey DLL4 extracellular domain (cynomolgus monkey). Description: binding ELISA, Biacore and FACS. In general terms: An ELISA detects its analyte on a solid surface through an enzyme-linked reagent.
For B1, the binding entry is “binds”.

Consider B2, for which the binding result is given as “binds”.

Turning to B3, the binding result is “binds”.

As for B4, the binding entry is given as “binds”.

Turning to B5, the binding entry was “binds”.

B6: the binding result was “binds”.

As for B7, the binding result is “binds”.

With B8, the binding entry is “binds”.

Turning to B9, the binding result was “binds”.

Regarding B10, the binding result is reported as “binds”.

In the case of B11, the binding entry is listed as “binds”.

With B12, the binding result is reported as “binds”.
